Measured values published in patent US6555583B2, “Therapies for treating pulmonary diseases” (SmithKline Beecham Corporation, priority 1998, dated 2003).
Some of these results come from one statement about several compounds together. At least one compound was matched to its structure with a doubt left.

Sequences of proteins named here, by UniProt entry; tags and fusion partners are left off. A change or cut given only in a name is not applied to a line headed by its entry.
UniProt P27815: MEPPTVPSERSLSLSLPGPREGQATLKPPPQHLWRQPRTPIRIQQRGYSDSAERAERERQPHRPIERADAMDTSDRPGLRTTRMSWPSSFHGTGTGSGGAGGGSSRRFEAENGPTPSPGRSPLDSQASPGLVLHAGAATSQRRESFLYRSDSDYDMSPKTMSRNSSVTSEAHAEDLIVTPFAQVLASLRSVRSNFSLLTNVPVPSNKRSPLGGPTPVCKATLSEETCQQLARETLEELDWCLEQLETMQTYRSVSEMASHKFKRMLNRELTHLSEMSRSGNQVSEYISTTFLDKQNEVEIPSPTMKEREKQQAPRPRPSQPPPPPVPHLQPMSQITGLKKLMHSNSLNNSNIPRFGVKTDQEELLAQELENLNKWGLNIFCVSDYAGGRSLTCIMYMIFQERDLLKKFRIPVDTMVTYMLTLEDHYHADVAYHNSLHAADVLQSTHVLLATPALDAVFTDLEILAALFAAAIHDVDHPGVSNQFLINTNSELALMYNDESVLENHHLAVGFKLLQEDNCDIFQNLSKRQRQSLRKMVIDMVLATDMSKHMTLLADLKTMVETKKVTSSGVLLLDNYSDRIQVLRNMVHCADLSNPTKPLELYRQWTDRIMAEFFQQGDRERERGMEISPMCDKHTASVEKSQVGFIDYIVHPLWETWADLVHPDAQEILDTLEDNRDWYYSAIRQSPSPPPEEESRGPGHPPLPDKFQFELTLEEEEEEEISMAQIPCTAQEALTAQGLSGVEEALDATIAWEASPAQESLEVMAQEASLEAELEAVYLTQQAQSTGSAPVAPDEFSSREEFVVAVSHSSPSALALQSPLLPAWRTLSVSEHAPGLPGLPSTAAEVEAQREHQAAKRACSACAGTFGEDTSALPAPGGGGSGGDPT

biological target: human monocyte recombinant PDE 4 (hPDE 4) (Homo sapiens, UniProt P27815); assay: IC50 ratio: PDE 4 catalytic form binding rolipram with high affinity / form binding with low affinity; format: biochemical; conditions: high/low affinity rolipram-binding forms of PDE 4

IC50 ratio (IC50 for the PDE 4 catalytic form which binds rolipram with a high affinity divided by the IC50 for the form which binds rolipram with a low affinity), ≥ 0.1:
COC(=O)C1CC(C#N)(c2ccc(OC(F)F)c(OCC3CC3)c2)CCC1=O (stereo not drawn) [2-carbomethoxy-4-cyano-4-(3-cyclopropylmethoxy-4-difluoromethoxyphenyl)cyclohexan-1-one]
N#CC1(c2ccc(OC(F)F)c(OCC3CC3)c2)CCC(O)CC1 (stereo not drawn) [cis-[4-cyano-4-(3-cyclopropylmethoxy-4-difluoromethoxyphenyl)cyclohexan-1-ol]]
COc1ccc(C2(C#N)CCC(C(=O)O)CC2)cc1OC1CCCC1 (stereo not drawn) [cis-[cyano-4-(3-cyclopentyloxy-4-methoxyphenyl)cyclohexan-1-carboxylate]]
